Measured values published in US20070207946A1 (priority 2001, published 2007).

What was measured:
[1] = general procedure: Fmoc solid-phase peptide synthesis; Pre-loaded Fmoc-Yaa-Wang resin (0.57 mmol/g); TBTU/DIEA; details: late stage modification step, TFA salt
[2] = peptide synthesis; details: coupling step, TFA salt

Substance | step yield [1] | step yield [2]
H-Glu(Gly3)-Thia *TFA | 94% | –
Boc-Glu(Gly5)-Thia | – | 86%
Boc-Glu(Gly3)-Thia | – | 49%
H-Glu(Gly5)-Thia *TFA | 98% | –
